Article PMC9279342
No constants are given. Whether binding was seen depends on the method and setting. Binding seen in cells or lysates may run through a third protein. Some results given as binding are weak or reduced against the parent protein; the word gives no strength. Sequences can lack the tags named with a protein.

Protein sequences, listed by entry. Tags and fused reporters are not part of them. Residues count along the entry.
UniProt P11021, residues 19-654: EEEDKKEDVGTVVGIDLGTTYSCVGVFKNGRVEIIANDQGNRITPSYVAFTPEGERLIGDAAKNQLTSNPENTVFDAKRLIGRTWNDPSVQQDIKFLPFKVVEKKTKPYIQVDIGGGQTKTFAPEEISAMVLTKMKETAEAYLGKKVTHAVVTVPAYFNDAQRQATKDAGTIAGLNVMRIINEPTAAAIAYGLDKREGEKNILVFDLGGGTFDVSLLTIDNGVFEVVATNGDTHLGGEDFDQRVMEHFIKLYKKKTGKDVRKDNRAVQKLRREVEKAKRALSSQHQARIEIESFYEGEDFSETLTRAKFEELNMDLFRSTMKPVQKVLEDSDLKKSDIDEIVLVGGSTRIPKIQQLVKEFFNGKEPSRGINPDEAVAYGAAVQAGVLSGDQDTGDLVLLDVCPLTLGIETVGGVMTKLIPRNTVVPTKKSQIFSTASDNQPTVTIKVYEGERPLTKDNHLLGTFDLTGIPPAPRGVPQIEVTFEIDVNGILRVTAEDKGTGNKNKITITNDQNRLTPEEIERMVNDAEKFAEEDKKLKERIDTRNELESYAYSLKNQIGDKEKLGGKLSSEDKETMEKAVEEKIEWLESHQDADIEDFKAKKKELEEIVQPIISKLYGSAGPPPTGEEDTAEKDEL

Biological target: T1, GST-Hevin mW633R (mouse Hevin W633R, GST inserted after the signal peptide) (mouse) (UniProt P70663)
T1 sequence: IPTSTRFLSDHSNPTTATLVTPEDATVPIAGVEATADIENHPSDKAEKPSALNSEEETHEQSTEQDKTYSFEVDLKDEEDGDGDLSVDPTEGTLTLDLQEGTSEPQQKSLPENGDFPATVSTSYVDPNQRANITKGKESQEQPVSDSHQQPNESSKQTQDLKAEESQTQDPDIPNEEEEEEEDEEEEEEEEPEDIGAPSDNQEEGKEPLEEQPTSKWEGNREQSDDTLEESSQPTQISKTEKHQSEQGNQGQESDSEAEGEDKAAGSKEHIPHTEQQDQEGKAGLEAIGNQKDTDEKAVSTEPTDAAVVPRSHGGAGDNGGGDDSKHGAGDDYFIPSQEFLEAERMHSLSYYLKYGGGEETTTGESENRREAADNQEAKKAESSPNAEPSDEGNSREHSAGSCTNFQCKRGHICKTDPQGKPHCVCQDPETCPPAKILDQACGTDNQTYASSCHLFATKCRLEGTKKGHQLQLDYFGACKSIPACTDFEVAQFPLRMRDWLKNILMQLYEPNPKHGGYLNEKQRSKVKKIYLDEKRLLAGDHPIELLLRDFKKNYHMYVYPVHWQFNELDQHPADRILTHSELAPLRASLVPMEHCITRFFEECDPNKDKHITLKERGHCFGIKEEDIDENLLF
Test: pull-down; GST-Hevin expressed in HEK293T cells (48 h) was precipitated from the lysate with Glutathione Sepharose beads, 2 h at 4 °C; lysis buffer 20 mM Tris-HCl pH 7.5, 150 mM NaCl, 0.5% NP-40, 1 mM DTT, in the presence or absence of 1 mM EDTA; endogenous BIP detected by immunoblot

binding: binds
Substance: BIP (ER chaperone protein) (from UniProt P11021 19-654)
